# According to paper PMC5996148:
# “And” between values parts separate entries of the source, which are not always exact repeats. Equal entries are not always repeated. This is one part of the list.
# Assays:
# Experiment in all cases: protein microarray (ProtoArray v5.0), streptavidin-Alexa Fluor 647
# Conditions in all cases: 3'-biotin; 20 mM Tris (pH 7.5), 5 mM MgCl2, 100 mM KCl, 0.1% Tween-20, A/T-rich and random oligonucleotide blockers; temperature not stated; high values mean tight binding
# AFG3L1 (human) = system: AFG3L1 (human)
# AHNAK (human) = system: AHNAK (human)
# AHSG (human) = system: AHSG (human)
# AIF1 (human) = system: AIF1 (human)
# AK3L1 (human) = system: AK3L1 (human)
# AKR1B10 (human) = system: AKR1B10 (human)
# ALB (human) = system: ALB (human)
# ALDH3A1 (human) = system: ALDH3A1 (human)
# ALG13 (human) = system: ALG13 (human)
# ALOX15 (human) = system: ALOX15 (human)
sequence,measurement,setting,value
GGGGACAGGGGTATGGGGAGGGG [G4-3 biotinylated (CtG)],binding signal,AFG3L1 (human),-0.327 z-score
same,binding signal,AHNAK (human),-0.298 z-score
same,binding signal,AHSG (human),-0.304 z-score
same,binding signal,AIF1 (human),-0.345 z-score and -0.33 z-score
same,binding signal,AK3L1 (human),-0.329 z-score
same,binding signal,AKR1B10 (human),-0.329 z-score
same,binding signal,ALB (human),-0.328 z-score
same,binding signal,ALDH3A1 (human),-0.318 z-score
same,binding signal,ALG13 (human),-0.321 z-score
same,binding signal,ALOX15 (human),-0.333 z-score

# Reprinted at random: two records from the list, in no set order.
sequence,measurement,setting,value
GGGGACAGGGGTATGGGGAGGGG [G4-3 biotinylated (CtG)],binding signal,ALDH3A1 (human),-0.318 z-score
same,binding signal,AKR1B10 (human),-0.329 z-score
